Measurements taken from publication PMC11828871, “Structural basis of anticancer drug recognition and amino acid transport by LAT1” (Nature Communications, 2025).
These are yes or no findings as the source states them, for the method shown. Some results given as binding are weak or reduced against the parent protein; the word gives no strength.

Chains of the proteins cited; added tags and fusions are not shown. Residues count along the entry.
UniProt P08195, residues 102-630: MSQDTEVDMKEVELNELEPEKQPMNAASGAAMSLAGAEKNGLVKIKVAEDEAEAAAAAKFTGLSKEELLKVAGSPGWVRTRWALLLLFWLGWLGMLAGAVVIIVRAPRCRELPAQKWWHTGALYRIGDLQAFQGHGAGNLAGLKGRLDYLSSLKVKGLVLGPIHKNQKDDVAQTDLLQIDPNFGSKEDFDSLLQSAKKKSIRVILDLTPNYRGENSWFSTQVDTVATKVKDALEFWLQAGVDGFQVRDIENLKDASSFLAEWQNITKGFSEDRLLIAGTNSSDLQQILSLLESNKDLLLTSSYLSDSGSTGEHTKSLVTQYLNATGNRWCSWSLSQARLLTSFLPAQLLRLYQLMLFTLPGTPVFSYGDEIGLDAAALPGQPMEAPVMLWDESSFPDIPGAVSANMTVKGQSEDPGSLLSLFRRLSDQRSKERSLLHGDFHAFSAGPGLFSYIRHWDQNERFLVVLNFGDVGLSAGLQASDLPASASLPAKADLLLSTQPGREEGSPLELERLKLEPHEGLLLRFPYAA
UniProt Q01650: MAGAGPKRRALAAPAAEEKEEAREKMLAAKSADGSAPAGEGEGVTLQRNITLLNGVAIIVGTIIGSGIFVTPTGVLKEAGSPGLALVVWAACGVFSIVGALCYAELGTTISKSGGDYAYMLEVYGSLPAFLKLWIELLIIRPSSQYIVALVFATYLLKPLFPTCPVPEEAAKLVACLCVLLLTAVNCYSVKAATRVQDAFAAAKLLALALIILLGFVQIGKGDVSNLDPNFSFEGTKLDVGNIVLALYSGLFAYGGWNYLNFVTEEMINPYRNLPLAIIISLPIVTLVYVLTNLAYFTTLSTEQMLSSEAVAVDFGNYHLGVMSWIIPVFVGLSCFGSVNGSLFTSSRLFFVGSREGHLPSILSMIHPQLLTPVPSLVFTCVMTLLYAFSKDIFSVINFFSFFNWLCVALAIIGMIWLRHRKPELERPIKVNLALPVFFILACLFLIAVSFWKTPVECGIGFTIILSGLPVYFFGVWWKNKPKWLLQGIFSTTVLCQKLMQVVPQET

Target: CD98hc (4F2hc; SLC3A2) (human) (UniProt P08195)
Test: cryo-EM structure; LAT1–CD98hc in lipid nanodiscs (POPC:POPG:cholesterol 2:2:1, MSP2N2) complexed with Fab170, gel filtration; SEC buffer 20 mM Tris-HCl pH 9.0, 150 mM NaCl; with JPH203, L-Phe, melphalan, BCH, T3 or no ligand; both purified

- binding: binds
Substance: L-type amino acid transporter 1 (LAT1; SLC7A5) (from UniProt Q01650 1-507)
